Data as given in PubChem BioAssay AID686943 (Drosophila RNAi Screening Center, 2013).

Aim: 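Fly genes whose loss alters ERK activation after insulin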 (primary screen)
Cells: Drosophila S2R+ haemocyte-like cells expressing YFP-tagged ERK (Rolled)
Reagents: long dsRNA against Drosophila genes
Conditions: insulin stimulation versus unstimulated cells; dose and duration not given
Measurement: 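Per-plate z-scores of phospho-ERK immunostaining normalised to YFP-tagged ERK, measured with and without insulin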
Direction: replicate 1, z-score of dpERK with insulin and replicate 2, z-score of dpERK with insulin: higher = more active ERK per ERK-YFP after insulin; replicate 1, z-score of dpERK under basal conditions: higher = more basal active ERK per ERK-YFP; replicate 1, z-score of ERK-YFP with insulin: higher = more YFP-tagged ERK signal
The screen tested about 23,000 reagents; this is a random part of those that have a named target and a result. 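Extra replicates exist only for a retested subset of genes; insulin dose and duration not given; both raised and lowered dpERK matter.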 A plus sign joins genes that one reagent is predicted to hit. Not stated in the record: the amount of reagent, the time to read-out.

target gene	DRSC id	replicate 1, z-score of dpERK with insulin	replicate 2, z-score of dpERK with insulin	replicate 1, z-score of dpERK under basal conditions	replicate 1, z-score of ERK-YFP with insulin
CG14958	DRSC08417	-0.84	-1.36	-0.86	-1.01
CG13599	DRSC14602	-0.1	0	-0.38	-0.12
Arc2	DRSC06436	-0.77	0.26	-0.17	0.58
CG15286	DRSC01907	0.15	0.02	-0.17	-0.1
TwdlO	DRSC16043	0.31	-0.01	5.9	-0.53
vig	DRSC03630	-0.01	0.01	0.61	0.6
vig	DRSC03631	-0.52	-0.08	0.53	1.18
vig	DRSC21672	-0.4	-0.74	-1.95	2.29
DUBAI + Tmem18	DRSC05344	-0.3	-1.24	-0.86	0.08
CG41520	DRSC21102	-0.47	0.61	0.82	0.01
CG41520	DRSC21103	-0.23	0.03	-0.45	0.15
RpL13	DRSC03416	-0.26	-3.25	-0.61	-6.37
inaF-B	DRSC18903	0.83	0.44	0.26	-0.06
Nedd8	DRSC02092	0.97	0.67	-0.2	0.02
CG13724	DRSC10053	0.23	0.63	-1.06	-0.26
CG14543	DRSC14887	-1.89	-0.1	-0.59	-0.57
CG18598	DRSC15356	0.16	0.97	-0.28	-0.23
Peritrophin-15b	DRSC02266	0.41	0.33	0.04	0.58
lky	DRSC20682	0.45	-0.14	0.27	-0.05
CG31109	DRSC14648	0.36	0.16	0.06	0.48
CAH15	DRSC04534	0.1	-0.03	-0.01	0.18
Prosbeta7	DRSC12186	-3.96	-3.65	-3.55	1.53
lectin-24A	DRSC00604	-0.18	0.09	0.13	0.18
Nlg2	DRSC00957	0.07	-0.06	1.31	0.47
Nlg2	DRSC03578	0.17	-0.66	1.76	0.44
Dscam2	DRSC08869	0.21	0.31	0.21	0.05
Dscam2	DRSC10198	0.32	-0.73	0.52	-0.94
Dscam2	DRSC10285	-3.73	-3.24	-0.6	-3.88
Dscam2	DRSC11018	0.17	0.49	0.23	0.8
Dscam2	DRSC11019	0.27	1.09	-0.49	-0.07
Dscam2	DRSC22526	0.37	-0.29	1.67	0.3
gnu	DRSC10497	-0.58	-0.95	0.56	-0.39

Quoted from the entries so far (9 entries):
target gene	DRSC id	replicate 1, z-score of dpERK with insulin	replicate 2, z-score of dpERK with insulin	replicate 1, z-score of dpERK under basal conditions	replicate 1, z-score of ERK-YFP with insulin
CG15286	DRSC01907	0.15	0.02	-0.17	-0.1
TwdlO	DRSC16043	0.31	-0.01	5.9	-0.53
vig	DRSC03630	-0.01	0.01	0.61	0.6
vig	DRSC03631	-0.52	-0.08	0.53	1.18
vig	DRSC21672	-0.4	-0.74	-1.95	2.29
DUBAI + Tmem18	DRSC05344	-0.3	-1.24	-0.86	0.08
CG41520	DRSC21102	-0.47	0.61	0.82	0.01
CG41520	DRSC21103	-0.23	0.03	-0.45	0.15
RpL13	DRSC03416	-0.26	-3.25	-0.61	-6.37

The results go on.
target gene	DRSC id	replicate 1, z-score of dpERK with insulin	replicate 2, z-score of dpERK with insulin	replicate 1, z-score of dpERK under basal conditions	replicate 1, z-score of ERK-YFP with insulin
CG3652	DRSC00624	0.6	-0.6	2.27	-1.5
Tpc1	DRSC15614	-2.6	-2.58	-0.61	-0.47
Tpc1	DRSC16074	-0.01	-0.1	-0.07	0.62
DhpD	DRSC12288	-0.02	0.11	0.38	0.24
CG13323	DRSC06360	-0.4	0.56	0.05	0.63
CG6287	DRSC02947	-0.07	0.43	0.7	0.27
CG11178	DRSC19396	0.56	0.28	0.79	-0.17
eIF3l	DRSC10530	-0.61	2.9	-2.08	1.36
Sply	DRSC07299	-0.09	0.25	1.36	1.49
CG7309	DRSC03045	-0.16	-1.48	-0.32	0.22
CG2816	DRSC00539	0.34	0.43	-0.17	0.29
Nhe3	DRSC03380	1.09	-0.05	-0.5	0.47
hook	DRSC03545	-0.36	0.16	0.09	0.35
MED16	DRSC04506	-1.33	0.91	-0.02	1.62
CG31121	DRSC15361	-0.27	0	-0.25	0.65
CG31121	DRSC15363	-1.23	-0.05	-1.16	-0.08
cutlet	DRSC00284	0.06	0.06	0.02	0.16
Gasz	DRSC06829	-0.11	0.04	0.16	0.57
Ktl	DRSC14270	0.23	-0.06	0.33	-0.25
CG32681	DRSC17646	0.02	-0.04	-0.34	0.69
CG12713	DRSC09900	0.17	-0.07	-0.27	0.18
SmydA-1	DRSC07200	0.29	0.17	-0.01	0.29
Rab4	DRSC07524	-1.09	-0.42	-0.2	1.24
Cyp4d2	DRSC18458	0.11	0.19	-0.47	0.2
CG34280	DRSC13229	1.82	-0.04	0.01	-0.03
